# Source: PubChem BioAssay AID504784 (Drosophila RNAi Screening Center, 2011)
# Assay: 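Fly genes whose silencing alters how much lipid cells keep in droplets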 (primary screen)
# System: Drosophila Kc167 embryonic cells
# Knock-down reagent: long dsRNA against Drosophila genes, about 250 ng dsRNA per well
# Time to read-out: 4 days
# Conditions: cells fed 400 µM oleic acid bound to BSA
# Detection: 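Cells imaged and segmented; ratio of lipid droplet area to nuclear area, log-transformed, then normalised as a B-score over the screen; higher means more stored lipid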
# Scale: droplet/nuclear area B-score: higher = more stored lipid (overstorage)
# The screen tested about 17,000 reagents; below is an unselected part of those that have a named target and a result. 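Each column is one replicate's B-score; the combined score over replicates was not deposited, so single values may mislead.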 A plus sign joins genes that one reagent is predicted to hit. Not all columns of the deposit are shown. Reagent sequences are not shown.
Target gene,dsRNA,"droplet/nuclear area B-score, replicate 1"
PGRP-SB1 (Peptidoglycan recognition protein SB1),DRSC11090,0.843
CG11854,DRSC14409,0.0431
CG11737,DRSC14364,0.672
DENR (Density regulated protein),DRSC20151,-0.612
Efa6 (Exchange factor for Arf 6),DRSC13569,-0.215
Efa6 (Exchange factor for Arf 6),DRSC15312,3.07
Efa6 (Exchange factor for Arf 6),DRSC16141,-1.54
Snx17 (Sorting nexin 17),DRSC02884,0.129
mAcon2 (Mitochondrial aconitase 2),DRSC15629,1.43
CG15456,DRSC20527,-1.59
CG32373,DRSC08895,0.424
Cyp6d4 (Cytochrome P450 6d4),DRSC16633,1.95
fzr (fizzy-related),DRSC18781,0.332
CCT3 (Chaperonin containing TCP1 subunit 3),DRSC16602,0.287
Kif3C (Kinesin family member 3C),DRSC17209,-0.558
Kif3C (Kinesin family member 3C),DRSC17210,-0.0207
CG6293,DRSC16011,-0.0591
trr (trithorax-related),DRSC18845,-0.244
trr (trithorax-related),DRSC23290,-0.167
Cpr76Bd (Cuticular protein 76Bd),DRSC11063,-1.85
CG15012,DRSC08465,0.433
CG14642,DRSC12228,0.396
Muc96D (Mucin 96D),DRSC13709,3.21
Muc96D (Mucin 96D),DRSC21609,-0.662
Muc96D (Mucin 96D),DRSC23213,0.162
bur (burgundy),DRSC03163,-1.53
CG13375,DRSC18621,0.0362
CG33770,DRSC11717,0.0743
Atg8b (Autophagy-related 8b),DRSC14501,0.024
cyp33 (cyclophilin-33),DRSC07600,0.124
CG15312,DRSC18000,2.39
CG31091,DRSC15933,0.401
Hs6st (Heparan sulfate 6-O-sulfotransferase),DRSC14348,-1.26
Hs6st (Heparan sulfate 6-O-sulfotransferase),DRSC15182,-0.853
Hs6st (Heparan sulfate 6-O-sulfotransferase),DRSC15581,0.693
Hs6st (Heparan sulfate 6-O-sulfotransferase),DRSC21732,-1.05
CG2924,DRSC18525,-1.8
CG9372,DRSC11068,1.75
Cec-Psi1 (Cecropin pseudogene 1),DRSC21956,-0.16
CG43066,DRSC06927,1.36
"Polr2H (RNA polymerase II, I and III subunit H)",DRSC11642,-0.0121
Thor,DRSC00770,-0.0691
CG5078,DRSC11762,-0.456
hpRNA:CR32205 (hairpin RNA:CR32205),DRSC09890,-0.474
Jhbp2 (Juvenile hormone binding protein 2),DRSC12292,-0.461
CG1317,DRSC08305,-1.13
Urod (Uroporphyrinogen decarboxylase),DRSC07569,-0.0659
CG13919,DRSC08388,1.25
CG4995,DRSC02801,0.36
CG5039,DRSC15703,-2.21
CecA2 (Cecropin A2),DRSC16604,-0.78
CG17190,DRSC15184,-3.03
Tapdelta (Translocon-associated protein delta),DRSC05946,0.714
CG7857,DRSC10925,-0.2
CG7800,DRSC16315,0.998
Dup99B (Ductus ejaculatorius peptide 99B),DRSC22877,-1.02
CG7227,DRSC03032,-0.0175
CG14453,DRSC11710,1.17
Usp2 (Ubiquitin specific protease 2),DRSC20590,0.294
Usp2 (Ubiquitin specific protease 2),DRSC20632,-0.737
Usp2 (Ubiquitin specific protease 2),DRSC20633,-0.857
CG10257,DRSC05985,-1.42
MME1 (Mitochondrial Magnesium Exporter 1),DRSC02714,0.252
AANATL7 (Arylalkylamine N-acetyltransferase-like 7),DRSC18616,-1.36
Topors (Topoisomerase I-interacting protein),DRSC06531,0.238
CG16790,DRSC15156,-1.46
CG31087,DRSC14253,0.839
Mvk + CG33672 + spt4,DRSC05356,0.0283
Mvk + CG33672 + spt4,DRSC06628,-1.25
CG31068,DRSC13820,0.21
Spc25,DRSC14164,-0.225
CG30284,DRSC22150,-0.00246
Klp3A (Kinesin-like protein at 3A),DRSC18676,1.4
Klp3A (Kinesin-like protein at 3A),DRSC21625,-0.75
salto,DRSC06291,0.012
RabX2,DRSC18234,0.919
CheB42b (Chemosensory protein B 42b),DRSC22878,-1.01
CG9899,DRSC04597,-0.365
RNaseP:RNA (Ribonuclease P RNA),DRSC22967,1.99
Acox57D-d (acyl-Coenzyme A oxidase at 57D distal),DRSC04561,0.124
Cpr11B (Cuticular protein 11B),DRSC19859,-1.05
Gr77a (Gustatory receptor 77a),DRSC11446,0.138
CG11816,DRSC19428,-2.11

No new results follow: an excerpt of the list.
Target gene,dsRNA,"droplet/nuclear area B-score, replicate 1"
Klp3A (Kinesin-like protein at 3A),DRSC21625,-0.75
salto,DRSC06291,0.012
RabX2,DRSC18234,0.919
CheB42b (Chemosensory protein B 42b),DRSC22878,-1.01
CG9899,DRSC04597,-0.365
RNaseP:RNA (Ribonuclease P RNA),DRSC22967,1.99
Acox57D-d (acyl-Coenzyme A oxidase at 57D distal),DRSC04561,0.124
